Data as given in PubChem BioAssay AID652272 (Drosophila RNAi Screening Center, 2013).

Test: 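Genes whose knock-down decreases or increases Hedgehog reporter output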 (primary screen)
System: Drosophila clone 8 (Cl8) cells
Knock-down reagent: long dsRNA against Drosophila genes
Measurement: 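Plate reader light from a firefly reporter under a ptc promoter fragment that responds to Hedgehog, with Renilla light as transfection reference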
Direction: firefly Hh reporter signal: higher = more ptc reporter light; Renilla reference signal: higher = more Renilla control light
Call rule: 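Called a hit if the two-replicate mean z-score lies below -2 or above +3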
Meaning of the calls: active = hit: reporter lowered or raised; inactive = not a hit
The screen tested about 21,000 reagents; below is a random part of those with a known target gene and a result. Over the whole deposit, 503 (2.4%) were called active. 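Raw plate light values, not normalised; calls rest on replicate z-scores that were not deposited; hits include reporter decreases as well as increases.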 A plus sign joins genes that one reagent is predicted to hit. The record does not give: the amount of reagent, the time to read-out.

With knock-down of CG13723 (GeneID 39925) [DRSC10052] the results were firefly Hh reporter signal, replicate 1 = 1.28e5; Renilla reference signal, replicate 1 = 3258; Renilla reference signal, replicate 2 = 2923; inactive. For CR32745 (GeneID 5740857) [DRSC17442] the deposit lists firefly Hh reporter signal, replicate 1 = 4.28e5; firefly Hh reporter signal, replicate 2 = 1.51e5; Renilla reference signal, replicate 1 = 23578; Renilla reference signal, replicate 2 = 3008; inactive. With knock-down of CG44014 + CG44013 [DRSC14995], the screen gave firefly Hh reporter signal, replicate 1 = 1.26e5; firefly Hh reporter signal, replicate 2 = 1.28e5; Renilla reference signal, replicate 1 = 2737; Renilla reference signal, replicate 2 = 4018; inactive. After knock-down of Tmlh (GeneID 42421) [DRSC15563], the screen gave firefly Hh reporter signal, replicate 1 = 5.93e5; firefly Hh reporter signal, replicate 2 = 69346; Renilla reference signal, replicate 1 = 29638; Renilla reference signal, replicate 2 = 1965; inactive. Silencing of CG1523 (GeneID 43400) [DRSC15033] came out at: firefly Hh reporter signal, replicate 1 = 96320; firefly Hh reporter signal, replicate 2 = 84595; Renilla reference signal, replicate 1 = 1433; Renilla reference signal, replicate 2 = 1952; inactive. For CG5561 (GeneID 33321) [DRSC00688], the entry reads firefly Hh reporter signal, replicate 1 = 1.65e5; firefly Hh reporter signal, replicate 2 = 1.17e5; Renilla reference signal, replicate 1 = 3723; Renilla reference signal, replicate 2 = 2762; inactive.

Knock-down of CG31523 (GeneID 326148) [DRSC12009] came out at: firefly Hh reporter signal, replicate 1 = 2.81e5; Renilla reference signal, replicate 1 = 6533; inactive. With knock-down of CG31523 (GeneID 326148) [DRSC12337], the screen gave firefly Hh reporter signal, replicate 1 = 1.59e5; firefly Hh reporter signal, replicate 2 = 1.46e5; Renilla reference signal, replicate 1 = 6995; Renilla reference signal, replicate 2 = 5725; inactive. CG7387 (GeneID 38915) [DRSC10833] showed firefly Hh reporter signal, replicate 1 = 1.06e5; firefly Hh reporter signal, replicate 2 = 56048; Renilla reference signal, replicate 1 = 4003; Renilla reference signal, replicate 2 = 2260; inactive. Against Srx (GeneID 32768) [DRSC20005], the values are firefly Hh reporter signal, replicate 1 = 92722; firefly Hh reporter signal, replicate 2 = 2.44e5; Renilla reference signal, replicate 1 = 2981; Renilla reference signal, replicate 2 = 9936; inactive. After knock-down of eag (GeneID 32428) [DRSC19067], the screen gave firefly Hh reporter signal, replicate 1 = 5.59e5; firefly Hh reporter signal, replicate 2 = 1.88e5; Renilla reference signal, replicate 1 = 35445; Renilla reference signal, replicate 2 = 4209; inactive. Knock-down of eag (GeneID 32428) [DRSC20328] resulted in: firefly Hh reporter signal, replicate 1 = 65866; firefly Hh reporter signal, replicate 2 = 1.35e5; Renilla reference signal, replicate 1 = 1782; Renilla reference signal, replicate 2 = 6244; inactive.

For Sirt1 (GeneID 34708) [DRSC03435] the deposit lists firefly Hh reporter signal, replicate 1 = 77851; firefly Hh reporter signal, replicate 2 = 45047; Renilla reference signal, replicate 1 = 2512; Renilla reference signal, replicate 2 = 1677; inactive. With knock-down of Eig71Ee (GeneID 39706) [DRSC11152], the screen gave firefly Hh reporter signal, replicate 1 = 1.96e5; Renilla reference signal, replicate 1 = 9122; Renilla reference signal, replicate 2 = 5498; inactive. Against SPARC (GeneID 43230) [DRSC14123], the entry reads firefly Hh reporter signal, replicate 1 = 77830; firefly Hh reporter signal, replicate 2 = 1.00e5; Renilla reference signal, replicate 1 = 2921; Renilla reference signal, replicate 2 = 3424; inactive. asRNA:CR31144 + RpL3 [DRSC16834] scored firefly Hh reporter signal, replicate 1 = 21799; firefly Hh reporter signal, replicate 2 = 51004; Renilla reference signal, replicate 1 = 1461; Renilla reference signal, replicate 2 = 2649; active. Knock-down of CG33286 (GeneID 2768984) [DRSC11691] gave: firefly Hh reporter signal, replicate 1 = 1.06e5; firefly Hh reporter signal, replicate 2 = 1.31e5; Renilla reference signal, replicate 1 = 3899; Renilla reference signal, replicate 2 = 3810; inactive. CG4318 (GeneID 32266) [DRSC19887] scored firefly Hh reporter signal, replicate 1 = 85866; firefly Hh reporter signal, replicate 2 = 3.00e5; Renilla reference signal, replicate 1 = 2221; Renilla reference signal, replicate 2 = 11060; inactive.

After knock-down of CG4293 (GeneID 31001) [DRSC18557], the record shows firefly Hh reporter signal, replicate 1 = 1.01e5; firefly Hh reporter signal, replicate 2 = 86016; Renilla reference signal, replicate 1 = 2656; Renilla reference signal, replicate 2 = 2874; inactive. After knock-down of CG12171 (GeneID 40690) [DRSC12200], the record shows firefly Hh reporter signal, replicate 1 = 59968; firefly Hh reporter signal, replicate 2 = 1.05e5; Renilla reference signal, replicate 1 = 2859; Renilla reference signal, replicate 2 = 3154; inactive. Against Ssb-c31a (GeneID 34120) [DRSC03443], the values are firefly Hh reporter signal, replicate 1 = 1.73e5; firefly Hh reporter signal, replicate 2 = 71229; Renilla reference signal, replicate 1 = 4640; Renilla reference signal, replicate 2 = 7057; inactive.

2 entries from above in another layout:
{"predicted target": "CG4293 (GeneID 31001)", "dsRNA": "DRSC18557", "firefly Hh reporter signal, replicate 1": 1.01e5, "firefly Hh reporter signal, replicate 2": 86016, "Renilla reference signal, replicate 1": 2656, "Renilla reference signal, replicate 2": 2874, "Call": "inactive"}
{"predicted target": "CG12171 (GeneID 40690)", "dsRNA": "DRSC12200", "firefly Hh reporter signal, replicate 1": 59968, "firefly Hh reporter signal, replicate 2": 1.05e5, "Renilla reference signal, replicate 1": 2859, "Renilla reference signal, replicate 2": 3154, "Call": "inactive"}
